Data taken from paper PMC4773171.
Results are given in words; binding and its absence hold for the method and conditions named. In cells and extracts the contact can be indirect. Binding can be weak; no strength is given.

Amino acid sequences for entries named in this document (tags omitted). A change or cut given only in a name is not applied to a line headed by its entry.
UniProt Q80Y74: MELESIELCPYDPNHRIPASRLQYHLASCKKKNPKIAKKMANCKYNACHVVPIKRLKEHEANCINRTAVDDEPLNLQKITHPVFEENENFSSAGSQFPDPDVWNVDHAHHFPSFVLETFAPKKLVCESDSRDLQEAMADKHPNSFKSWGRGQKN
UniProt P61407: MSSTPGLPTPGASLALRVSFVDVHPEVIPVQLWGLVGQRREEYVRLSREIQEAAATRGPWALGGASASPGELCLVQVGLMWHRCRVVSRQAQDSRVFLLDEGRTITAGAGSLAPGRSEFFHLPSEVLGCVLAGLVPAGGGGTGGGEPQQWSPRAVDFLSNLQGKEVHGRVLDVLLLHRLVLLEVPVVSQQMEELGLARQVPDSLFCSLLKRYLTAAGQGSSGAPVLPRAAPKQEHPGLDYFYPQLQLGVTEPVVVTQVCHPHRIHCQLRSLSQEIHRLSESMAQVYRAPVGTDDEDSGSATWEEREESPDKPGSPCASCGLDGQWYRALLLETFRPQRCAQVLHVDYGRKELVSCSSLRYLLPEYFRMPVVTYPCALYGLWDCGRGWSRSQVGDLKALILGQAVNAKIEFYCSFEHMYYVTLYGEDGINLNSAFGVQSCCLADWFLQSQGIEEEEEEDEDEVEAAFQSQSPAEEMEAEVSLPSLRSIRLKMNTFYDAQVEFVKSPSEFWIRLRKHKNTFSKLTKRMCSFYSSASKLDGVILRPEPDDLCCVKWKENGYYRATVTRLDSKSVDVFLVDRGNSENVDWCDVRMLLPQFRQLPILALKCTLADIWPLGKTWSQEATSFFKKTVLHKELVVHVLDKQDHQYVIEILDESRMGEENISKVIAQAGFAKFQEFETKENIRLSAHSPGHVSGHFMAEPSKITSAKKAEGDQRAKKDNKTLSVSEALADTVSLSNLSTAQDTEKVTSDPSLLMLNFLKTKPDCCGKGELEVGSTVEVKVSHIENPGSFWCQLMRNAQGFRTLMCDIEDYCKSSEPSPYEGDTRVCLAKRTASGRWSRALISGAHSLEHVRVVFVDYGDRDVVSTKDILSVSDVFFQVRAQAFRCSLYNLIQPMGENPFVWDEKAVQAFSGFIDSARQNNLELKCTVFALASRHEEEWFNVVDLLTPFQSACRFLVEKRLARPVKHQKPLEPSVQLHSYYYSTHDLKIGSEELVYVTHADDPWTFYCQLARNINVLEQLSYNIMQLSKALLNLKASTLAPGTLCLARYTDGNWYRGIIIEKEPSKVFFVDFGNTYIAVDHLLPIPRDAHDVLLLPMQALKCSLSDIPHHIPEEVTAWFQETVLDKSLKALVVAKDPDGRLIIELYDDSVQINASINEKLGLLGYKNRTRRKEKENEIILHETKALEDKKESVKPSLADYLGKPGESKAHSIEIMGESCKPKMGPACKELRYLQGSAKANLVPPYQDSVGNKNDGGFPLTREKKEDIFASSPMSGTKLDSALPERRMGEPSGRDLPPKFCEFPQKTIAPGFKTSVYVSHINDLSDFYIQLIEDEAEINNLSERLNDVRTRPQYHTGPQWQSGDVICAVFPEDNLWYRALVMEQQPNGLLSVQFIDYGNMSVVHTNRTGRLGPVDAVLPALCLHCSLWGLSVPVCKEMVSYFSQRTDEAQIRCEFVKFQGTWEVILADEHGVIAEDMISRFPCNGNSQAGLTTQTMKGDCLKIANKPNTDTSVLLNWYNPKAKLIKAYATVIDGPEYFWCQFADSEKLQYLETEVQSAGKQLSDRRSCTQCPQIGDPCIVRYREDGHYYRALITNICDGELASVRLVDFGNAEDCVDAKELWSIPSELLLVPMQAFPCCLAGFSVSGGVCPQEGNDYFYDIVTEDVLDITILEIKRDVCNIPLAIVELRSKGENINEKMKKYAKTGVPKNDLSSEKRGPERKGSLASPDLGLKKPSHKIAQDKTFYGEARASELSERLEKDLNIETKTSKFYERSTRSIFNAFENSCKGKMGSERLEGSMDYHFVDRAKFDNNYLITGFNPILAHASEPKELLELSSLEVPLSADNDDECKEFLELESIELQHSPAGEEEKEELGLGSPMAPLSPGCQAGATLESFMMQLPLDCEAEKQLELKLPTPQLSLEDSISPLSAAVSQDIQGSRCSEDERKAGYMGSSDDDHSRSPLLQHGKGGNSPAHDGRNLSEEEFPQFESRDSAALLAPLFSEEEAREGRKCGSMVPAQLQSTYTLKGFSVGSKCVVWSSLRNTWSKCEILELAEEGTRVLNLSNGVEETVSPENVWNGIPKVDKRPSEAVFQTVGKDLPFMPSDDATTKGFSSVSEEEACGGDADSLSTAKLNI
UniProt Q9JMB7: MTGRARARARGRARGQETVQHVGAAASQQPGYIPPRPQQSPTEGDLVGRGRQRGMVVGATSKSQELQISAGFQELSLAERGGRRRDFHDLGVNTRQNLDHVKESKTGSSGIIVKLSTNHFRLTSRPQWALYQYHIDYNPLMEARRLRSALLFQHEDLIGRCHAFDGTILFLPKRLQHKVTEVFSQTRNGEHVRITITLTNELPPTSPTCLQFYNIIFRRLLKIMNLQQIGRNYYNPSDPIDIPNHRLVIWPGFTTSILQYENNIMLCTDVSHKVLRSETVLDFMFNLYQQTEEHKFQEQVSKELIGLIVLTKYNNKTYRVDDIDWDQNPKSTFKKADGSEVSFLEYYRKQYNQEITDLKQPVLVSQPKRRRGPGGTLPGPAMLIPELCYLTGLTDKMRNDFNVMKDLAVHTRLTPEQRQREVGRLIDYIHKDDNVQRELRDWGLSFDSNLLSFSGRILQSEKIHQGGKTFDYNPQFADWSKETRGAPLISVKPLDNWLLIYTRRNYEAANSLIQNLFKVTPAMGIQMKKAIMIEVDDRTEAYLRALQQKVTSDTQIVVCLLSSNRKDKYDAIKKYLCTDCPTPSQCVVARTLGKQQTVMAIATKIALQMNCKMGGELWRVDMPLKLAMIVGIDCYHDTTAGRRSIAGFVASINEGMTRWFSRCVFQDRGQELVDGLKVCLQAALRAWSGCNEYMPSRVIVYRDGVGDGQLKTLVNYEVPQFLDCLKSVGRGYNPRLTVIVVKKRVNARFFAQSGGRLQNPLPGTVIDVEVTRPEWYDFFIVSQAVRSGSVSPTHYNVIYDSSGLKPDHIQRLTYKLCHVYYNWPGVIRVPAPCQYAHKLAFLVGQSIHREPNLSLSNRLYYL

B1: TDRD1 (protein, UniProt Q99MV1 1-1172)
chain: MMPRNNLEASTCKMAEPFNFEKKESKPPPQDPLRSPVAQHNHPTFRLKSPENGNTKNNFLLCEQNKQYLASQEDSSVVSSNPAVVNGEVGGSKGDRKPPPTGNPVSPLSLGNSSPPNQVKTKPSSNVTPEKSKKSHKLFENALSVNNPALFNSLGPPLRSTTCHRCGLFGSLRCSQCKQTYYCSTACQRRDWSSHSTICRPVQQSLNKLEDNKSPFETKAIEVKSEVDCPPGVTKEITAGAERVMFSDLRSLQLKKTMEIKGTVTEFKHPSNFYIQLYSSEVLENMNQLSTSLKETYANVVPEDGYLPVKGEVCVAKYTVDQTWNRAIVQAVDVLQRKAHVLYIDYGNEEMIPIDSVHPLSRGLDLFPPSAIKCCVSGVIPTAGEWSEGCVAAVKALLFEQFCSVKVMDILEEEVLTCAVDLVLQSSGKQLDHVLVEMGYGVKPGEQSSTEQSVDHSALEDVGRVTVESKIVTDRNALIPKVLTLNVGDEFCGVVAHIQTPEDFFCQQLQSGHKLAELQESLSEYCGHVIPRSDFYPTIGDVCCAQFSEDDQWYRASVLAYASEESVLVGYVDYGNFEILSLKRLCPIIPKLLDLPMQALNCVLAGVKPSLGIWTPEAVCVMKEMVQNRMVTVRVVGMLGTRALVELIDKSVAPHVSASKALIDSGFAIKEKDVADKGSSMHTASVPLAIEGPAEALEWTWVEFTVDETVDVVVCMMYSPGEFYCHFLKDDALEKLDDLNQSLADYCAQKPPNGFKAEIGRPCCAFFSGDGNWYRALVKEILPSGNVKVHFVDYGNVEEVTTDQLQAILPQFLLLPFQGMQCWLVDIQPPNKHWTKEATARFQACVVGLKLQARVVEITANGVGVELTDLSTPYPKIISDVLIREQLVLRCGSPQDSLMSRPANQHKQIDSHRVQASPSAEQWKTMELPVNKTIAANVLEIISPALFYAIPSEMSENQEKLCVLAAELLEHCNAQKGQPAYRPRTGDACCAKYTNDDFWYRAIVLETSESDVKVLYADYGNIETLPLSRVQPIPASHLELPFQIIRCSLEGPMELNGSCSQLVMELLRNAMLNQSVVLSVKAISKNVHAVSVEKCSENGMINIAENLVMCGLAENLTSKRKSASTKEIPHSRDCCCTELQKQIEKHEQILLFLLNNPTNQSKFTEMKKLLRS

Tests used:
[1] = target: GST-fused full-length GTSF2 (mouse) (UniProt Q80Y74); assay: pull-down; GST-fusion protein on Glutathione Sepharose 4B beads; mouse testis lysate, untreated, 2 h at 4°C; binding buffer 20 mM Tris-HCl pH 7.5, 150 mM NaCl, 0.1% NP40; western blotting of the bound fraction; only the target purified
[2] = target: GST-fused full-length GTSF2 (mouse) (UniProt Q80Y74); assay: pull-down; as a1, but testis lysate treated with 40 U/ml RNase A; only the target purified
[3] = target: GST-fused GTSF2 N-terminal region (ZnF) (mouse); assay: pull-down; GST-fusion protein on Glutathione Sepharose 4B beads; mouse testis lysate, untreated, 2 h at 4°C; binding buffer 20 mM Tris-HCl pH 7.5, 150 mM NaCl, 0.1% NP40; western blotting of the bound fraction; only the target purified

binding [1]	binding [2]	binding [3]	Molecule
no binding	–	–	TDRD6 (from UniProt P61407 1-2134)
binds	binds	–	MIWI (from UniProt Q9JMB7 1-862)
binds	binds	binds	B1
